Screen size: about 300,000 compounds; about 3,700 (1.2%) were called active. The shares of active, inactive and inconclusive entries below differ from those in the screen. Calls follow the shape of the full dose curve; tested in HEK293 cells. Potencies beside an inconclusive call are fits to weak or partial responses and may not hold up.
Test: qHTS for Inhibitors of binding or entry into cells for Lassa Virus; also: nearly all actives have a fitted effect of over 50% in size
Settings: Lassa virus pseudotype entry inhibition, cell reporter; activity change, negative = inhibition: at 37.9 µM (top of the series) unless noted
% is scaled to controls: 0 for no effect and ±100 for the full control effect; potency is read from the fitted curve at half-maximal effect.

Q: For `O=C(COc1ccc2ccccc2c1Br)N1CCOCC1`, which Potency is on record?
A: The Potency was inconclusive: 11.2 µM [activator, single point].

Q: With `COC(=O)c1ccc(C(=O)OC)c(NC(=O)CN2CCN(c3ccc(OC)cc3)CC2)c1` as the molecule, how does the “activity change, negative = inhibition” value read?
A: The value was inactive: -22.6%.

Q: Which Potency does the source give for `CC(=O)Nc1cc2nn(-c3ccccc3)nc2cc1Cl` here?
A: Its Potency is inconclusive: 14.6 µM [inhibitor, partial curve, poor fit].

Q: With `COc1ccc(C)cc1C(=O)CCC(=O)Nc1ccccc1N1CCOCC1` as the molecule, how does the Potency read?
A: The Potency was inconclusive: 16.4 µM [inhibitor, single point].

Q: With `CCC(Sc1nc(C)cc(=O)[nH]1)C(=O)Nc1nc(-c2ccccc2)cs1` (stereo not drawn) as the molecule, how does the “activity change, negative = inhibition” value read?
A: The value was inactive: -11.9%.

Q: With `COCC(C)NC(=O)c1ccc(N(C)C)cc1` (stereo not drawn) as the molecule, how does the Potency read?
A: The Potency was inconclusive: 29.1 µM [activator, single point].

Q: Which Potency does the source give for `N#Cc1c(N2CCCC2)nc(N)c2c(N)nc(N3CCCC3)cc12` here?
A: Its Potency is inconclusive: 35.5 µM [inhibitor, single point].

Q: With `CCOc1ccc(Nc2nc(Cl)nc(N3CCN(c4ccc(OC)cc4)CC3)n2)cc1` as the molecule, how does the Potency read?
A: Its Potency is inconclusive: 16.4 µM [inhibitor, single point].

Q: For `Cc1ccc(C(=O)Nc2ccc(C(=O)O)cc2)cc1S(=O)(=O)NCc1ccccc1`, which Potency is on record?
A: The Potency was inconclusive: 7.94 µM [inhibitor, partial curve, poor fit].

Q: For `O=C(COC(=O)CNS(=O)(=O)c1ccc2ccccc2c1)Nc1ccc2c(c1)OCO2`, which “activity change, negative = inhibition” value is on record?
A: Its value is inactive: 2%.

Q: With `Cc1ccc(CNC(=O)Cn2c(SCC(=O)Nc3ccc(F)cc3)nc3ccccc32)cc1` as the molecule, how does the Potency read?
A: Its Potency is inconclusive: 7.08 µM [inhibitor, full curve, poor fit].

Q: For `Cc1cccc(S(=O)(=O)Nc2nc3ccccc3nc2NCc2ccco2)c1`, which Potency is on record?
A: The Potency was inconclusive: 0.447 µM [inhibitor, partial curve, poor fit].

Q: Which “activity change, negative = inhibition” value does the source give for `COc1ccc(N(C)S(=O)(=O)c2c(C)[nH]c(=O)[nH]c2=O)c(OC)c1` here?
A: The value was inactive: 1.43%.

Q: With `COc1ccc(N2CC(NS(=O)(=O)c3ccc4ccccc4c3)CC2=O)cc1` (stereo not drawn) as the molecule, how does the Potency read?
A: Its Potency is inconclusive: 31.6 µM [inhibitor, single point].

Q: With `CC(C)Oc1ccc(C(=O)/C=C2/C(=O)Nc3ccccc32)cc1` as the molecule, how does the Potency read?
A: The Potency was inconclusive: 4.47 µM [inhibitor, partial curve, poor fit].

Q: For `Cc1ccc(C(C#N)c2ccc(Cl)nn2)cc1` (stereo not drawn), which “activity change, negative = inhibition” value is on record?
A: Its value is inactive: 11.9%.

Q: With `CCCCNC(=O)/C=C/c1ccc(OC)c(Br)c1` as the molecule, how does the Potency read?
A: Its Potency is inconclusive: 23.1 µM [inhibitor, single point].

Q: For `Cc1ccc(N2CC(C(=O)OCc3nc(N)nc(Nc4ccccc4C)n3)CC2=O)cc1` (stereo not drawn), which “activity change, negative = inhibition” value is on record?
A: The value was inactive: 8.08%.

Q: For `Cc1ccc(NC(=O)C2(C)Cc3ccccc3C(=O)O2)c(C)c1` (stereo not drawn), which Potency is on record?
A: The Potency was inconclusive: 5.01 µM [inhibitor, single point].

Q: Which Potency does the source give for `Cc1nc2ccccc2n1-c1ccccc1` here?
A: Its Potency is inconclusive: 1.46 µM [activator, partial curve, poor fit].

Q: With `O=C(COc1ccc(Cc2ccccc2)cc1)c1ccc(F)cc1` as the molecule, how does the Potency read?
A: The Potency was inconclusive: 15.8 µM [inhibitor, partial curve, poor fit].

Q: For `CC1C(=O)N(Cc2cccc(F)c2)c2ccccc2N1C(=O)c1ccccc1` (stereo not drawn), which “activity change, negative = inhibition” value is on record?
A: The value was inactive: -6.81%.

Q: Which Potency does the source give for `CCOc1ccc(NC(=O)c2ccco2)cc1` here?
A: Its Potency is inconclusive: 14.6 µM [inhibitor, single point].

Q: With `COc1ccc(CCNC(=O)c2ccc3c(c2)sc2nc(-c4ccccc4)cn23)cc1OC` as the molecule, how does the “activity change, negative = inhibition” value read?
A: Its value is inactive: -7.11% [at 46.1 µM].

Q: With `Cc1ccccc1N(C)S(=O)(=O)c1nnc(NC(=O)c2ccco2)s1` as the molecule, how does the Potency read?
A: The Potency was inconclusive: 2.51 µM [activator, partial curve, poor fit].

Q: Which “activity change, negative = inhibition” value does the source give for `CC(=O)N1CCN(CCS(=O)(=O)c2ccc(Br)cc2)CC1` here?
A: Its value is inactive: 7.46%.

Q: For `COc1ccc(C(=O)N/N=C(\C)CC(=O)Nc2ccc3c(c2)OCO3)cc1`, which “activity change, negative = inhibition” value is on record?
A: Its value is inactive: 1.59%.

Q: For `N#Cc1c(C(F)(F)F)cc(=O)n2c1[nH]c1ccccc12`, which Potency is on record?
A: The Potency was inconclusive: 17.8 µM [inhibitor, single point].

Q: With `CC(C)Oc1ccc(S(=O)(=O)N2CCCCC2)cc1NC(=O)C1=COCCO1` as the molecule, how does the Potency read?
A: The Potency was inconclusive: 10 µM [inhibitor, partial curve, poor fit].

Q: For `O=S(=O)(c1cccs1)N1CCN(CCOc2ccccc2)CC1`, which Potency is on record?
A: Its Potency is inconclusive: 35.5 µM [inhibitor, single point].

Q: With `Cc1cc(NC(=O)CCC(=O)N(Cc2cccs2)C(C(=O)NC2CCCC2)c2ccccc2)no1` (stereo not drawn) as the molecule, how does the “activity change, negative = inhibition” value read?
A: Its value is inactive: -18.1%.

Q: With `CCN(CCNC(=O)C1=C(C)C(=O)OC12CCC(C)CC2)c1ccccc1` (stereo not drawn) as the molecule, how does the Potency read?
A: Its Potency is inconclusive: 10.3 µM [inhibitor, partial curve].

Q: Which “activity change, negative = inhibition” value does the source give for `Cc1cc(=O)oc2cc(NC(=O)CCOc3ccccc3)ccc12` here?
A: The value was inactive: -13.9%.

Q: With `CSc1ccc(CN2CCN(C(=O)CC(C)C)CC2)cc1` as the molecule, how does the “activity change, negative = inhibition” value read?
A: Its value is inactive: 0.0186% [at 46.1 µM].

Q: Which Potency does the source give for `CC(C)c1ccc(/C=N/NC(=O)CCNC(=O)c2ccccc2)cc1` here?
A: Its Potency is inconclusive: 35.5 µM [inhibitor, single point].

Q: Which Potency does the source give for `COc1ccc(-c2cc(=O)oc3cc(OC(=O)C4CCCCC4)ccc23)cc1` here?
A: The Potency was inconclusive: 6.51 µM [inhibitor, partial curve, poor fit].

Q: With `CN(C(=O)COn1nnc2ccc(S(=O)(=O)N3CCOCC3)cc21)c1ccccc1` as the molecule, how does the Potency read?
A: Its Potency is inconclusive: 0.891 µM [activator, single point].

Q: For `CC(=O)Oc1cc(C(=O)OCC(=O)N2CCc3ccccc3C2)cc(OC(C)=O)c1OC(C)=O`, which Potency is on record?
A: Its Potency is inconclusive: 11.2 µM [inhibitor, single point].

Q: With `CCOc1ccccc1NC(=O)Nc1ccon1` as the molecule, how does the Potency read?
A: Its Potency is inconclusive: 35.5 µM [activator, partial curve, poor fit].

Q: With `Cc1ccc2c(COC(=O)CNC(=O)c3ccco3)cc(=O)oc2c1C` as the molecule, how does the “activity change, negative = inhibition” value read?
A: The value was inactive: 25%.

Q: With `COc1cccc(NC(=O)C2CCC(CNS(=O)(=O)c3ccc4c(c3)CCCC(=O)N4)CC2)c1` (stereo not drawn) as the molecule, how does the “activity change, negative = inhibition” value read?
A: The value was inactive: -3.46% [at 46.1 µM].

Q: Which Potency does the source give for `COc1ccc(CCN(C)C(=O)c2cc(-c3ccc(C)cc3)nc3ccccc23)cc1OC` here?
A: The Potency was inconclusive: 1.26 µM [activator, single point].

Q: For `CSc1nnc(CNS(=O)(=O)c2ccc(Cl)cc2)n1C`, which Potency is on record?
A: The Potency was inconclusive: 7.08 µM [activator, partial curve, poor fit].

Q: For `CN1C(=S)N(c2ccccc2)C(=O)/C1=C/c1ccco1`, which “activity change, negative = inhibition” value is on record?
A: The value was inactive: 0.214%.

Q: For `O=C(NC(Cc1c[nH]c2ccccc12)C(=O)NCc1ccc(F)cc1)OCc1ccccc1` (stereo not drawn), which Potency is on record?
A: Its Potency is inconclusive: 0.461 µM [inhibitor, full curve].

Q: Which Potency does the source give for `COc1cccc(-c2nc3ccccc3s2)c1` here?
A: Its Potency is inconclusive: 22.4 µM [inhibitor, single point].

Q: With `Cc1cc(C)c2cc(CN(CC3CCCO3)C(=S)NCc3ccco3)c(=O)[nH]c2c1` (stereo not drawn) as the molecule, how does the “activity change, negative = inhibition” value read?
A: The value was inactive: -16.6%.

Q: For `COc1ccc(-c2cc(-c3ccc(C)cc3)nc3c2COc2ccccc2-3)cc1`, which Potency is on record?
A: The Potency was inconclusive: 5.62 µM [inhibitor, single point].

Q: With `Cc1ccc(C2(C)NC(=O)N(CC(=O)Nc3cc(C)on3)C2=O)cc1` (stereo not drawn) as the molecule, how does the “activity change, negative = inhibition” value read?
A: Its value is inactive: -13.6%.

Q: Which Potency does the source give for `CCc1ccc(CNC(=O)CCCn2ccc3cc(S(=O)(=O)N4CCCC4)ccc32)cc1` here?
A: Its Potency is inconclusive: 12.6 µM [inhibitor, partial curve, poor fit].

Q: For `CSc1nc(NCCOCCO)c2sc3nc(-c4ccco4)c4c(c3c2n1)CCC4`, which Potency is on record?
A: Its Potency is inconclusive: 11.2 µM [inhibitor, partial curve, poor fit].

Q: With `Cc1ccc(C(=O)O/N=C(\N)c2ccccn2)cc1` as the molecule, how does the Potency read?
A: Its Potency is inconclusive: 3.55 µM [inhibitor, full curve, poor fit].

Q: With `COc1ccc(C(=O)Nn2c(SCC(=O)N3CCC(C)CC3)nc3ccccc3c2=O)cc1` as the molecule, how does the Potency read?
A: Its Potency is active: 8.2 µM.

Q: Which Potency does the source give for `OC(CNc1nc(C(F)(F)F)nc2ccccc12)c1ccccc1` (stereo not drawn) here?
A: Its Potency is inconclusive: 35.5 µM [inhibitor, partial curve, poor fit].

Q: Which Potency does the source give for `Cc1cc(-c2nnc(-c3cccc(C(F)(F)F)c3)o2)no1` here?
A: Its Potency is inconclusive: 5.01 µM [activator, single point].

Q: With `CCN(CC)c1ccc(-c2nc3cnccc3n2C)cc1` as the molecule, how does the “activity change, negative = inhibition” value read?
A: The value was inactive: -24.5%.

Q: Which Potency does the source give for `CCn1ncc(Br)c1C(=O)Nc1ccn(C23CC4CC(CC(C4)C2)C3)n1` here?
A: Its Potency is inconclusive: 11.2 µM [inhibitor, partial curve].

Q: With `COCCn1c(-c2ccc(SC)cc2)nc2c1c(=O)[nH]c(=O)n2CC(C)C` as the molecule, how does the Potency read?
A: Its Potency is inconclusive: 10 µM [inhibitor, partial curve, poor fit].

Q: For `COC1=C/C(=C/c2c(N)n3nc(CC(=O)N4CCOCC4)sc3nc2=O)C=CC1=O`, which Potency is on record?
A: The Potency was inconclusive: 35.5 µM [inhibitor, single point].

Q: With `O=C(C#Cc1ccccc1)c1cccc([N+](=O)[O-])c1` as the molecule, how does the Potency read?
A: Its Potency is inconclusive: 25.1 µM [inhibitor, single point].

Q: With `CN1CCN(C(=O)/C=C/c2cn(-c3ccccc3)nc2-c2ccc3c(c2)OCCO3)CC1` as the molecule, how does the Potency read?
A: Its Potency is inconclusive: 16.4 µM [inhibitor, single point].

Q: With `COCCn1c(N)c(C#N)c2nc3ccccc3nc21` as the molecule, how does the “activity change, negative = inhibition” value read?
A: Its value is inactive: 3.7%.

Q: Which “activity change, negative = inhibition” value does the source give for `CC(C(=O)N1c2ccccc2Sc2ccccc21)n1nnc(-c2cccs2)n1` (stereo not drawn) here?
A: The value was inactive: 8.58%.

Q: For `O=C(O)c1cc2c(s1)-c1ccccc1CC2`, which Potency is on record?
A: The Potency was inconclusive: 31.6 µM [activator, single point].

Q: For `Clc1cccc(Cl)c1/C=N\Nc1nccs1`, which Potency is on record?
A: The Potency was inconclusive: 20.6 µM [activator, partial curve, poor fit].

Q: For `Cc1cc(C)cc(-n2ccnc2SCC(=O)Nc2cccc3ccccc23)c1`, which Potency is on record?
A: The Potency was inconclusive: 35.5 µM [inhibitor, single point].

Q: Which Potency does the source give for `COc1ccc(Cl)cc1NC(=O)CN(C)C(=O)Cc1ccc2c(c1)CCC2` here?
A: Its Potency is inconclusive: 35.5 µM [activator, single point].

Q: For `COc1ccc(/C=N/NC(=O)CSc2nnc(C)n2-c2ccccc2)c(OC)c1OC`, which Potency is on record?
A: Its Potency is inconclusive: 17.8 µM [inhibitor, single point].
